# Experimental data taken from the supplement of paper PMC4604168 (melanoma cell lines).
# The list shows a part of the results. Single values are uncertain, as repeats are few or missing.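 Cells were imaged in 1,536-well plates, and nuclei stained with an antibody against cleaved PARP were counted against all DNA-stained nuclei to give the apoptosis fraction. Screening doses were chosen to leave most cells alive, and resting and induced cleaved-PARP levels differ strongly between cell lines.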
# System: CBRC034 (line from a melanoma biopsy)
# Test: cleaved PARP positive nuclei fraction relative to DMSO control; melanoma cells; higher = more apoptosis
# Details: library dose: low library concentration; 72 h
row,SMILES,cleaved PARP positive nuclei fraction [%]
1,"C/C(O)=C(\C#N)C(=O)Nc1cc(Br)ccc1Br + CC(C)CCN1c2nc(Nc3cc(F)c(O)c(F)c3)ncc2N(C)C(=O)C1C [BID1870] (first compound 2 µM, partner dose 0.2 µM)",78.7
2,"Cc1cc(SCc2sc(-c3ccc(C(F)(F)F)c(F)c3)nc2C)ccc1OCC(=O)O + c1cc(-c2cnn3cc(-c4ccc(OCCN5CCCCC5)cc4)cnc23)ccn1 [Dorsomorphin] (first compound 2 µM, partner dose 0.4 µM)",54.9
3,"c1cc(-c2cnn3cc(-c4ccc(OCCN5CCCCC5)cc4)cnc23)ccn1 [Dorsomorphin] + O=C(Oc1ccc([N+](=O)[O-])cc1)N1CCC(C(O)(c2ccc3c(c2)OCO3)c2ccc3c(c2)OCO3)CC1 [JZL184] (first compound 0.4 µM, partner dose 1 µM)",63.3
4,"C[As](C)SC[C@H](NC(=O)CC[C@H](N)C(=O)O)C(=O)NCC(=O)O [Darinaparsin] + CCCCCCCCCCCC1=C(O)C(=O)C=C(O)C1=O [Embelin] (first compound 0.4 µM, partner dose 1.2 µM)",82.4
5,"COCC[n+]1c2c(n(Cc3cnccn3)c1C)C(=O)c1ccccc1C2=O + Cc1cc(SCc2sc(-c3ccc(C(F)(F)F)c(F)c3)nc2C)ccc1OCC(=O)O [GW0742] (first compound 0.0004 µM, partner dose 2 µM)",89.8
6,"C/C(O)=C(\C#N)C(=O)Nc1cc(Br)ccc1Br + Cn1cc(/C=C2\C(=O)Nc3cccnc32)c2ccccc21 [GW441756] (first compound 2 µM, partner dose 0.4 µM)",80
7,"C[As](C)SC[C@H](NC(=O)CC[C@H](N)C(=O)O)C(=O)NCC(=O)O [Darinaparsin] + Cc1cc(SCc2sc(-c3ccc(C(F)(F)F)c(F)c3)nc2C)ccc1OCC(=O)O [GW0742] (first compound 0.4 µM, partner dose 2 µM)",79.3
8,"OCCn1cc(-c2cnc3nnn(Cc4ccc5ncccc5c4)c3n2)cn1 + Cc1cc(SCc2sc(-c3ccc(C(F)(F)F)c(F)c3)nc2C)ccc1OCC(=O)O [GW0742] (first compound 1 µM, partner dose 2 µM)",93.6
9,"Cc1ccc(NC(=O)c2cccc(N(C)C)c2)cc1NC(=O)c1ccc(O)cc1 + C/C(O)=C(\C#N)C(=O)Nc1cc(Br)ccc1Br [LFM-A13] (first compound 2 µM, partner dose 2 µM)",92.9
10,"Cc1cc(SCc2sc(-c3ccc(C(F)(F)F)c(F)c3)nc2C)ccc1OCC(=O)O + Cc1cc([N+](=O)[O-])ccc1NS(=O)(=O)c1cc(Cl)ccc1Cl [FH535] (first compound 2 µM, partner dose 1 µM)",21.4
11,"Cn1cncc1[C@@](N)(c1ccc(Cl)cc1)c1ccc2c(c1)c(-c1cccc(Cl)c1)cc(=O)n2C [tipifarnib] + C/C(O)=C(\C#N)C(=O)Nc1cc(Br)ccc1Br [LFM-A13] (first compound 0.01 µM, partner dose 2 µM)",35.8
12,"Oc1nc(-c2ccc(C(F)(F)F)cc2)nc2c1CSCC2 + O=C(Oc1ccc([N+](=O)[O-])cc1)N1CCC(C(O)(c2ccc3c(c2)OCO3)c2ccc3c(c2)OCO3)CC1 [JZL184] (first compound 2 µM, partner dose 1 µM)",48.6
13,"O=C(O)c1ccc(-c2c[nH]c3ncc(-c4ccccc4)cc23)cc1C1CCCC1 + Cc1cc(SCc2sc(-c3ccc(C(F)(F)F)c(F)c3)nc2C)ccc1OCC(=O)O [GW0742] (first compound 0.16 µM, partner dose 2 µM)",55.2
14,"Cn1cncc1[C@@](N)(c1ccc(Cl)cc1)c1ccc2c(c1)c(-c1cccc(Cl)c1)cc(=O)n2C [tipifarnib] + Cc1cc(SCc2sc(-c3ccc(C(F)(F)F)c(F)c3)nc2C)ccc1OCC(=O)O [GW0742] (first compound 0.01 µM, partner dose 2 µM)",41.8
15,"CC(C)(C)c1cnc(CSc2cnc(NC(=O)C3CCNCC3)s2)o1 + C/C(O)=C(\C#N)C(=O)Nc1cc(Br)ccc1Br [LFM-A13] (first compound 0.01 µM, partner dose 2 µM)",85.1
16,"C#Cc1cccc(Nc2ncnc3cc(OCCOC)c(OCCOC)cc23)c1 [erlotinib] + O=C(Oc1ccc([N+](=O)[O-])cc1)N1CCC(C(O)(c2ccc3c(c2)OCO3)c2ccc3c(c2)OCO3)CC1 [JZL184] (first compound 0.8 µM, partner dose 1 µM)",57.1
17,"CC(C)(C)c1cnc(CSc2cnc(NC(=O)C3CCNCC3)s2)o1 + Cc1cc(SCc2sc(-c3ccc(C(F)(F)F)c(F)c3)nc2C)ccc1OCC(=O)O [GW0742] (first compound 0.01 µM, partner dose 2 µM)",76.5
18,"NCC(=O)Nc1ccc(-n2nc(C(F)(F)F)cc2-c2ccc3c(ccc4ccccc43)c2)cc1 + O=C(Oc1ccc([N+](=O)[O-])cc1)N1CCC(C(O)(c2ccc3c(c2)OCO3)c2ccc3c(c2)OCO3)CC1 [JZL184] (first compound 1 µM, partner dose 1 µM)",80.4
19,"NCC(=O)Nc1ccc(-n2nc(C(F)(F)F)cc2-c2ccc3c(ccc4ccccc43)c2)cc1 + C/C(O)=C(\C#N)C(=O)Nc1cc(Br)ccc1Br [LFM-A13] (first compound 1 µM, partner dose 2 µM)",97.9
20,"COc1cc(Nc2ncc(F)c(Nc3ccc4c(n3)NC(=O)C(C)(C)O4)n2)cc(OC)c1OC [Tamatinib] + O=C(Oc1ccc([N+](=O)[O-])cc1)N1CCC(C(O)(c2ccc3c(c2)OCO3)c2ccc3c(c2)OCO3)CC1 [JZL184] (first compound 0.4 µM, partner dose 1 µM)",122
21,"O=C(O)C(=O)Nc1sc2c(c1C(=O)O)CCNC2 + O=C(Oc1ccc([N+](=O)[O-])cc1)N1CCC(C(O)(c2ccc3c(c2)OCO3)c2ccc3c(c2)OCO3)CC1 [JZL184] (first compound 1.66667 µM, partner dose 1 µM)",83.7
22,"Cc1cc(SCc2sc(-c3ccc(C(F)(F)F)c(F)c3)nc2C)ccc1OCC(=O)O + O=C(Oc1ccc([N+](=O)[O-])cc1)N1CCC(C(O)(c2ccc3c(c2)OCO3)c2ccc3c(c2)OCO3)CC1 [JZL184] (first compound 2 µM, partner dose 1 µM)",83.9

# Exported bar-delimited: entries from further up.
row | SMILES | cleaved PARP positive nuclei fraction [%]
9 | Cc1ccc(NC(=O)c2cccc(N(C)C)c2)cc1NC(=O)c1ccc(O)cc1 + C/C(O)=C(\C#N)C(=O)Nc1cc(Br)ccc1Br [LFM-A13] (first compound 2 µM, partner dose 2 µM) | 92.9
22 | Cc1cc(SCc2sc(-c3ccc(C(F)(F)F)c(F)c3)nc2C)ccc1OCC(=O)O + O=C(Oc1ccc([N+](=O)[O-])cc1)N1CCC(C(O)(c2ccc3c(c2)OCO3)c2ccc3c(c2)OCO3)CC1 [JZL184] (first compound 2 µM, partner dose 1 µM) | 83.9
